The results in this text go back to PMC8688515.

Amino acid sequences for entries named in this document (tags omitted).
UniProt A6NIX2: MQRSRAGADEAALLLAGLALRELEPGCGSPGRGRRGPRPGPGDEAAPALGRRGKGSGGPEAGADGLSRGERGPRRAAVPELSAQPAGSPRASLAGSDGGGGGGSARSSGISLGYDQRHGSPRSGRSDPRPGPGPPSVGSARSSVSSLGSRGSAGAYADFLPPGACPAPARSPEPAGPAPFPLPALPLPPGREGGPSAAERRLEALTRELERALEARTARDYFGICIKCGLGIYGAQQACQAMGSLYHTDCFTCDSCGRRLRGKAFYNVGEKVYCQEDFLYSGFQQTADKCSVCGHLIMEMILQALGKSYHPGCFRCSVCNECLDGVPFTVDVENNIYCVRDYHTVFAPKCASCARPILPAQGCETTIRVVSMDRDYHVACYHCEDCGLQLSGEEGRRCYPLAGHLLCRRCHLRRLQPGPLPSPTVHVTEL
UniProt O43524: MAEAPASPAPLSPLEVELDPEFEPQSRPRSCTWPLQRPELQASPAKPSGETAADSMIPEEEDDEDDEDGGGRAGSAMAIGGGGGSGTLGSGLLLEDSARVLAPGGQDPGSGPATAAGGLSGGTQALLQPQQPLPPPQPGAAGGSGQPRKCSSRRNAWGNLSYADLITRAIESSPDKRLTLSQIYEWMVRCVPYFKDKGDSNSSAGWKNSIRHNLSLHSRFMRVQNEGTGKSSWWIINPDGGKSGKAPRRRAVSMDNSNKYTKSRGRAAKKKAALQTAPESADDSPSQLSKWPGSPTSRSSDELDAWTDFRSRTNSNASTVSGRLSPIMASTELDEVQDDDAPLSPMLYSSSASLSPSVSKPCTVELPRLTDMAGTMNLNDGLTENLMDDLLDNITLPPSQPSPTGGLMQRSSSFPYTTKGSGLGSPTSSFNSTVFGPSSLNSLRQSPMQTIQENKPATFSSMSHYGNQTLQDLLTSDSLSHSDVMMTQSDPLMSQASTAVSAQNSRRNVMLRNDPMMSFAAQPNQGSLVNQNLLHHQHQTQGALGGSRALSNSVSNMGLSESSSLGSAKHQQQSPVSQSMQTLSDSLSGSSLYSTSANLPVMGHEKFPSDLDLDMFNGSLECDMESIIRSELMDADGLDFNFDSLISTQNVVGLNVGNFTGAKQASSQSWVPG

For the assay, the target named is WTIP (human (coding sequence amplified from HEK293 cells)) (UniProt A6NIX2). Nature of the assay: co-IP; MOLM-13 cells transfected with WTIP or control vector, doxycycline 48 h; RIPA lysates; primary antibody (anti-WTIP) or normal IgG overnight at 4 °C, protein A magnetic beads 2 h at 4 °C, washed three times with PBST; immunoblot with anti-FOXO3a.

No constants are given. Whether binding was seen depends on the method and setting. In cells and extracts the contact can be indirect. Some binding calls cover weakened binding; strength is not graded here.

Turning to FOXO3a (from UniProt O43524 1-673), the binding entry is given as “binds”.
